Source: patent US20210220260A1, “TOPICAL INJECTABLE COMPOSITION” (JETEMA CO., LTD., priority 2019, published 2021)
For at least one compound, name, drawing or mass did not settle the structure.

Test: Precipitation test: dissolution in water for injection
Format: physicochemical
[1] = water for injection at pH 7.0 and 7.8, agitated by hand

## C[C@H](CCC(=O)O)[C@H]1CC[C@H]2[C@@H]3CC[C@@H]4C[C@H](O)CC[C@]4(C)[C@H]3C[C@H](O)[C@]12C [DCA, deoxycholic acid]
Confirmed by the inventors
  pH values at which DCA forms a precipitate: ≤ 8.2
[1]
  dissolution in water for injection: did not dissolve easily
  precipitate formation: formed a precipitate
